Test results from patent publication US20240034757A1.
These are yes or no findings as the source states them, for the method shown.

Protein sequences, listed by entry. Tags and fused reporters are not part of them. Residues count along the entry.
UniProt P78423, residues 25-100: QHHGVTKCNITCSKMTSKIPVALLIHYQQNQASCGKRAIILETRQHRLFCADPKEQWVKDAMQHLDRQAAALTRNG
UniProt Q16663, residues 22-113: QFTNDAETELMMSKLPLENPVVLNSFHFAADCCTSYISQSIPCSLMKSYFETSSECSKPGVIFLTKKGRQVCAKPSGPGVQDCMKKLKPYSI
UniProt P42830, residues 41-114: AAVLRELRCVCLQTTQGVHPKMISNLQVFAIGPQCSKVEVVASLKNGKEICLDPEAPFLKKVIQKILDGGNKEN
UniProt P09341, residues 35-107: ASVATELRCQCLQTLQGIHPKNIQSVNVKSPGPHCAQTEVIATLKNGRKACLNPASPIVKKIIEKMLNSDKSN
UniProt O14625, residues 22-94: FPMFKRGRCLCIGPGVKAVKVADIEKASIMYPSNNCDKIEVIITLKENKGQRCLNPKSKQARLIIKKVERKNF
UniProt O95715, residues 35-111: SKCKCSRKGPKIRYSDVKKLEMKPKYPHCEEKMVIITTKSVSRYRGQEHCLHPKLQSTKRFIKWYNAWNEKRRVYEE
UniProt P02775, residues 59-128: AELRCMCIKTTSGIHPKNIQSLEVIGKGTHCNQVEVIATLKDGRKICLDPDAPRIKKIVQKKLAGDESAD
UniProt Q9Y4X3, residues 25-112: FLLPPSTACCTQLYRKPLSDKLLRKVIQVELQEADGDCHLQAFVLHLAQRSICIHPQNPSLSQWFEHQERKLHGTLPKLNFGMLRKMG
UniProt P55773, residues 22-120: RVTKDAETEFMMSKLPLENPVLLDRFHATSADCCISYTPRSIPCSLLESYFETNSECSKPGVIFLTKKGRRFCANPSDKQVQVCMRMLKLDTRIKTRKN
UniProt O00585, residues 24-134: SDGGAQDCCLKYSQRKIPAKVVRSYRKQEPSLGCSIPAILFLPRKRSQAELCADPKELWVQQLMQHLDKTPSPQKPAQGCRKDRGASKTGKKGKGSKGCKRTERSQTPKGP
UniProt O00175, residues 27-104: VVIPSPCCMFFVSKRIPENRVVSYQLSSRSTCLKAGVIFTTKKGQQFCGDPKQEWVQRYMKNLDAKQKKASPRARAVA
UniProt O15467, residues 24-120: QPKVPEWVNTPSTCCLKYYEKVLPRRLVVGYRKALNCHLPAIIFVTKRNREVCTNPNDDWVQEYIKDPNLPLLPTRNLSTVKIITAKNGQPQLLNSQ
UniProt P19875, residues 35-107: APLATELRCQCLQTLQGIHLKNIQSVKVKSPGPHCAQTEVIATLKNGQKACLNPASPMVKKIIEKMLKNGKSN
UniProt P10145, residues 28-99: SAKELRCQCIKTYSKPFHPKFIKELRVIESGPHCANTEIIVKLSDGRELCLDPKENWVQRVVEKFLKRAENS
UniProt P78556, residues 27-96: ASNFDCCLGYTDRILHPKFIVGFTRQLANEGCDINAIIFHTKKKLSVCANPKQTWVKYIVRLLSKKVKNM
UniProt P48061, residues 22-89: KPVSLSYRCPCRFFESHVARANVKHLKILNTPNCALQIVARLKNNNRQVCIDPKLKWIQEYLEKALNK
UniProt P22362, residues 24-96: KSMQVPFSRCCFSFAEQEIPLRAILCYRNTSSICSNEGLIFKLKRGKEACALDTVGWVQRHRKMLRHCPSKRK
UniProt Q9NRJ3, residues 23-127: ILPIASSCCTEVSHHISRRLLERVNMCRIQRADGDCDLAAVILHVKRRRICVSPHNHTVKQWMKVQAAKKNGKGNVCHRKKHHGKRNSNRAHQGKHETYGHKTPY
UniProt P80162, residues 38-114: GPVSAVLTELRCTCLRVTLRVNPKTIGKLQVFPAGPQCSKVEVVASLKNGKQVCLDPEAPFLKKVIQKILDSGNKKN
UniProt Q99731, residues 22-98: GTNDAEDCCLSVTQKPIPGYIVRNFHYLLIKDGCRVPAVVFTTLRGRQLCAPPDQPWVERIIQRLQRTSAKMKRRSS
UniProt Q92583, residues 24-94: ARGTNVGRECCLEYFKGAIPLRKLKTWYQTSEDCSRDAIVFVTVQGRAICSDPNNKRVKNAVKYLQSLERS
UniProt P19876, residues 35-107: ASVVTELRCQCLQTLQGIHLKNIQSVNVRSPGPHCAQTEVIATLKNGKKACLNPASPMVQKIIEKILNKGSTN
UniProt P02776, residues 32-101: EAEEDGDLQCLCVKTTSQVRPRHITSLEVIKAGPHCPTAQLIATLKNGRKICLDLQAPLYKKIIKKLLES
UniProt Q07325, residues 23-125: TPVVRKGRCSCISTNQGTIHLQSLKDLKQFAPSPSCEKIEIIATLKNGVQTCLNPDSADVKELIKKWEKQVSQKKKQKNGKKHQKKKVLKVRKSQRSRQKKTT
UniProt P13501, residues 24-91: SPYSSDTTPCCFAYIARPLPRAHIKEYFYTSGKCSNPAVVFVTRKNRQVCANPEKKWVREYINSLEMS
UniProt O00626, residues 25-93: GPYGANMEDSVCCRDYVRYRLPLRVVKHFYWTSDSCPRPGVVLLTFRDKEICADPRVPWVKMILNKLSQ
UniProt O43927, residues 23-109: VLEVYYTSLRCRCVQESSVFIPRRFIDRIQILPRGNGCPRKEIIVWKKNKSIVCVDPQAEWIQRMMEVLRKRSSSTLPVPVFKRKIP
UniProt P02778, residues 22-98: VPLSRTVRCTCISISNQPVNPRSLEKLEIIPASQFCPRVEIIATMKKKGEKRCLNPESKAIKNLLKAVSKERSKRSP
UniProt P55774, residues 21-89: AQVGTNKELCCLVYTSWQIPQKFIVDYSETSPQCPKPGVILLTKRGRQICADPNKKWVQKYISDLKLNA

Columns and labels:
CX3CL1_HUMAN (human) [1] = target: CX3CL1_HUMAN (human) (UniProt P78423); experiment: BLI, empty cell the 12th table, row 41, column 11
CCL15_HUMAN (human) [2] = target: CCL15_HUMAN (human) (UniProt Q16663); experiment: BLI, empty cell the 12th table, row 25, column 11
CXCL5_HUMAN (human) [3] = target: CXCL5_HUMAN (human) (UniProt P42830); experiment: BLI, empty cell the 12th table, row 46, column 11
CXCL1_HUMAN (human) [4] = target: CXCL1_HUMAN (human) (UniProt P09341); experiment: BLI, empty cell the 12th table, row 42, column 11
CXCL11_HUMAN (human) [5] = target: CXCL11_HUMAN (human) (UniProt O14625); experiment: BLI, empty cell the 12th table, row 52, column 11
CXCL14_HUMAN (human) [6] = target: CXCL14_HUMAN (human) (UniProt O95715); experiment: BLI, empty cell the 12th table, row 55, column 11
CXCL7_HUMAN (human) [7] = target: CXCL7_HUMAN (human) (UniProt P02775); experiment: BLI, empty cell the 12th table, row 48, column 11
CCL27_HUMAN (human) [8] = target: CCL27_HUMAN (human) (UniProt Q9Y4X3); experiment: BLI, empty cell the 12th table, row 38, column 11
CCL23_HUMAN (human) [9] = target: CCL23_HUMAN (human) (UniProt P55773); experiment: BLI, empty cell the 12th table, row 34, column 11
CCL21_HUMAN (human) [10] = target: CCL21_HUMAN (human) (UniProt O00585); experiment: BLI, empty cell the 12th table, row 32, column 11
XCL1_HUMAN (human) [11] = target: T1, XCL1_HUMAN (human) (UniProt P47992); experiment: BLI, empty cell the 12th table, row 59, column 11
T1 sequence: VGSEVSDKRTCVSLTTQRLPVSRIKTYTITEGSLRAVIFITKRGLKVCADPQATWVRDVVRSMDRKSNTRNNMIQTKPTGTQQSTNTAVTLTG

CCL24_HUMAN (human) [12] = target: CCL24_HUMAN (human) (UniProt O00175); experiment: BLI, empty cell the 12th table, row 35, column 11
CCL16_HUMAN (human) [13] = target: CCL16_HUMAN (human) (UniProt O15467); experiment: BLI, empty cell the 12th table, row 26, column 11
CXCL2_HUMAN (human) [14] = target: CXCL2_HUMAN (human) (UniProt P19875); experiment: BLI, empty cell the 12th table, row 43, column 11
CXCL8_HUMAN (human) [15] = target: CXCL8_HUMAN (human) (UniProt P10145); experiment: BLI, empty cell the 12th table, row 49, column 11
CCL20_HUMAN (human) [16] = target: CCL20_HUMAN (human) (UniProt P78556); experiment: BLI, empty cell the 12th table, row 30, column 11
CXCL12_HUMAN (human) [17] = target: CXCL12_HUMAN (human) (UniProt P48061); experiment: BLI, empty cell the 12th table, row 53, column 11
CCL1_HUMAN (human) [18] = target: CCL1_HUMAN (human) (UniProt P22362); experiment: BLI, empty cell the 12th table, row 10, column 11
CCL28_HUMAN (human) [19] = target: CCL28_HUMAN (human) (UniProt Q9NRJ3); experiment: BLI, empty cell the 12th table, row 40, column 11
CXCL6_HUMAN (human) [20] = target: CXCL6_HUMAN (human) (UniProt P80162); experiment: BLI, empty cell the 12th table, row 47, column 11
CCL19_HUMAN (human) [21] = target: CCL19_HUMAN (human) (UniProt Q99731); experiment: BLI, empty cell the 12th table, row 29, column 11
CCL17_HUMAN (human) [22] = target: CCL17_HUMAN (human) (UniProt Q92583); experiment: BLI, empty cell the 12th table, row 27, column 11
CXCL3_HUMAN (human) [23] = target: CXCL3_HUMAN (human) (UniProt P19876); experiment: BLI, empty cell the 12th table, row 44, column 11
CXCL4_HUMAN (human) [24] = target: CXCL4_HUMAN (human) (UniProt P02776); experiment: BLI, empty cell the 12th table, row 45, column 11
CXCL9_HUMAN (human) [25] = target: CXCL9_HUMAN (human) (UniProt Q07325); experiment: BLI, empty cell the 12th table, row 50, column 11
CCL5_HUMAN (human) [26] = target: CCL5_HUMAN (human) (UniProt P13501); experiment: BLI, empty cell the 12th table, row 18, column 11
CCL22_HUMAN (human) [27] = target: CCL22_HUMAN (human) (UniProt O00626); experiment: BLI, empty cell the 12th table, row 33, column 11
CXCL13_HUMAN (human) [28] = target: CXCL13_HUMAN (human) (UniProt O43927); experiment: BLI, empty cell the 12th table, row 54, column 11
CXCL10_HUMAN (human) [29] = target: CXCL10_HUMAN (human) (UniProt P02778); experiment: BLI, empty cell the 12th table, row 51, column 11
CCL28_HUMAN (human) [30] = target: CCL28_HUMAN (human) (UniProt Q9NRJ3); experiment: BLI, empty cell the 12th table, row 40, column 10
CXCL13_HUMAN (human) [31] = target: CXCL13_HUMAN (human) (UniProt O43927); experiment: BLI, empty cell the 12th table, row 54, column 10
CXCL9_HUMAN (human) [32] = target: CXCL9_HUMAN (human) (UniProt Q07325); experiment: BLI, empty cell the 12th table, row 50, column 10
CCL23_HUMAN (human) [33] = target: CCL23_HUMAN (human) (UniProt P55773); experiment: BLI, empty cell the 12th table, row 34, column 10
CXCL11_HUMAN (human) [34] = target: CXCL11_HUMAN (human) (UniProt O14625); experiment: BLI, empty cell the 12th table, row 52, column 10
CXCL1_HUMAN (human) [35] = target: CXCL1_HUMAN (human) (UniProt P09341); experiment: BLI, empty cell the 12th table, row 42, column 10
CXCL4_HUMAN (human) [36] = target: CXCL4_HUMAN (human) (UniProt P02776); experiment: BLI, empty cell the 12th table, row 45, column 10
CCL19_HUMAN (human) [37] = target: CCL19_HUMAN (human) (UniProt Q99731); experiment: BLI, empty cell the 12th table, row 29, column 10
CCL16_HUMAN (human) [38] = target: CCL16_HUMAN (human) (UniProt O15467); experiment: BLI, empty cell the 12th table, row 26, column 10
CXCL12_HUMAN (human) [39] = target: CXCL12_HUMAN (human) (UniProt P48061); experiment: BLI, empty cell the 12th table, row 53, column 10
CCL1_HUMAN (human) [40] = target: CCL1_HUMAN (human) (UniProt P22362); experiment: BLI, empty cell the 12th table, row 10, column 10
CXCL7_HUMAN (human) [41] = target: CXCL7_HUMAN (human) (UniProt P02775); experiment: BLI, empty cell the 12th table, row 48, column 10
CXCL3_HUMAN (human) [42] = target: CXCL3_HUMAN (human) (UniProt P19876); experiment: BLI, empty cell the 12th table, row 44, column 10
CXCL5_HUMAN (human) [43] = target: CXCL5_HUMAN (human) (UniProt P42830); experiment: BLI, empty cell the 12th table, row 46, column 10
CCL21_HUMAN (human) [44] = target: CCL21_HUMAN (human) (UniProt O00585); experiment: BLI, empty cell the 12th table, row 32, column 10
CXCL8_HUMAN (human) [45] = target: CXCL8_HUMAN (human) (UniProt P10145); experiment: BLI, empty cell the 12th table, row 49, column 10
CXCL2_HUMAN (human) [46] = target: CXCL2_HUMAN (human) (UniProt P19875); experiment: BLI, empty cell the 12th table, row 43, column 10
CCL17_HUMAN (human) [47] = target: CCL17_HUMAN (human) (UniProt Q92583); experiment: BLI, empty cell the 12th table, row 27, column 10
CX3CL1_HUMAN (human) [48] = target: CX3CL1_HUMAN (human) (UniProt P78423); experiment: BLI, empty cell the 12th table, row 41, column 10
CCL27_HUMAN (human) [49] = target: CCL27_HUMAN (human) (UniProt Q9Y4X3); experiment: BLI, empty cell the 12th table, row 38, column 10
CXCL10_HUMAN (human) [50] = target: CXCL10_HUMAN (human) (UniProt P02778); experiment: BLI, empty cell the 12th table, row 51, column 10
CCL24_HUMAN (human) [51] = target: CCL24_HUMAN (human) (UniProt O00175); experiment: BLI, empty cell the 12th table, row 35, column 10
CCL18_HUMAN (human) = CCL18_HUMAN (human) (UniProt P55774); experiment: BLI, empty cell the 12th table, row 28, column 10
XCL1_HUMAN (human) [52] = target: T1, XCL1_HUMAN (human); experiment: BLI, empty cell the 12th table, row 59, column 10
CCL22_HUMAN (human) [53] = target: CCL22_HUMAN (human) (UniProt O00626); experiment: BLI, empty cell the 12th table, row 33, column 10
CCL20_HUMAN (human) [54] = target: CCL20_HUMAN (human) (UniProt P78556); experiment: BLI, empty cell the 12th table, row 30, column 10
CCL5_HUMAN (human) [55] = target: CCL5_HUMAN (human) (UniProt P13501); experiment: BLI, empty cell the 12th table, row 18, column 10
CCL15_HUMAN (human) [56] = target: CCL15_HUMAN (human) (UniProt Q16663); experiment: BLI, empty cell the 12th table, row 25, column 10
CXCL14_HUMAN (human) [57] = target: CXCL14_HUMAN (human) (UniProt O95715); experiment: BLI, empty cell the 12th table, row 55, column 10
CXCL6_HUMAN (human) [58] = target: CXCL6_HUMAN (human) (UniProt P80162); experiment: BLI, empty cell the 12th table, row 47, column 10

Measured: binding

B1: P1181_AMBMA (protein)
chain: EEREDDNDYGGGCPFVVLGNGTHAKPAGCSHLCNGAPETLDNIECYNVTEEVAKRMTPDIPYTCWLGWCSKGECKRDNRTEVCYRGSERE
no binding (tested: 300 nM): CX3CL1_HUMAN (human) [1] | CCL15_HUMAN (human) [2] | CXCL5_HUMAN (human) [3] | CXCL1_HUMAN (human) [4] | CXCL11_HUMAN (human) [5] | CXCL14_HUMAN (human) [6] | CXCL7_HUMAN (human) [7] | CCL27_HUMAN (human) [8] | CCL23_HUMAN (human) [9] | CCL21_HUMAN (human) [10] | XCL1_HUMAN (human) [11] | CCL24_HUMAN (human) [12] | CCL16_HUMAN (human) [13] | CXCL2_HUMAN (human) [14] | CXCL8_HUMAN (human) [15] | CCL20_HUMAN (human) [16] | CXCL12_HUMAN (human) [17] | CCL1_HUMAN (human) [18] | CCL28_HUMAN (human) [19] | CXCL6_HUMAN (human) [20] | CCL19_HUMAN (human) [21] | CCL17_HUMAN (human) [22] | CXCL3_HUMAN (human) [23] | CXCL4_HUMAN (human) [24] | CXCL9_HUMAN (human) [25] | CCL5_HUMAN (human) [26] | CCL22_HUMAN (human) [27] | CXCL13_HUMAN (human) [28] | CXCL10_HUMAN (human) [29]

B2: P983_AMBCA (protein)
chain: EDTGTEDDFDYGNTGCPFPVLGNYKSNMTKPVGCKNKCGSGYEVLNDTTPCYVIDQKVFNNMVPLRQYSKCPLGFCENGECKPNDQAEDCYKGREEQK
no binding (tested: 300 nM): CCL28_HUMAN (human) [30] | CXCL13_HUMAN (human) [31] | CXCL9_HUMAN (human) [32] | CCL23_HUMAN (human) [33] | CXCL11_HUMAN (human) [34] | CXCL1_HUMAN (human) [35] | CXCL4_HUMAN (human) [36] | CCL19_HUMAN (human) [37] | CCL16_HUMAN (human) [38] | CXCL12_HUMAN (human) [39] | CCL1_HUMAN (human) [40] | CXCL7_HUMAN (human) [41] | CXCL3_HUMAN (human) [42] | CXCL5_HUMAN (human) [43] | CCL21_HUMAN (human) [44] | CXCL8_HUMAN (human) [45] | CXCL2_HUMAN (human) [46] | CCL17_HUMAN (human) [47] | CX3CL1_HUMAN (human) [48] | CCL27_HUMAN (human) [49] | CXCL10_HUMAN (human) [50] | CCL24_HUMAN (human) [51] | CCL18_HUMAN (human) | XCL1_HUMAN (human) [52] | CCL22_HUMAN (human) [53] | CCL20_HUMAN (human) [54] | CCL5_HUMAN (human) [55] | CCL15_HUMAN (human) [56] | CXCL14_HUMAN (human) [57] | CXCL6_HUMAN (human) [58]
